Measured values from the supplement of paper PMC10849652.
The other results are listed elsewhere or left out.

By UniProt entry, the sequences of proteins in these tests, tags left out. Where a name states a change or a piece, a line headed by the entry shows the natural chain unless it says otherwise.
UniProt O95819: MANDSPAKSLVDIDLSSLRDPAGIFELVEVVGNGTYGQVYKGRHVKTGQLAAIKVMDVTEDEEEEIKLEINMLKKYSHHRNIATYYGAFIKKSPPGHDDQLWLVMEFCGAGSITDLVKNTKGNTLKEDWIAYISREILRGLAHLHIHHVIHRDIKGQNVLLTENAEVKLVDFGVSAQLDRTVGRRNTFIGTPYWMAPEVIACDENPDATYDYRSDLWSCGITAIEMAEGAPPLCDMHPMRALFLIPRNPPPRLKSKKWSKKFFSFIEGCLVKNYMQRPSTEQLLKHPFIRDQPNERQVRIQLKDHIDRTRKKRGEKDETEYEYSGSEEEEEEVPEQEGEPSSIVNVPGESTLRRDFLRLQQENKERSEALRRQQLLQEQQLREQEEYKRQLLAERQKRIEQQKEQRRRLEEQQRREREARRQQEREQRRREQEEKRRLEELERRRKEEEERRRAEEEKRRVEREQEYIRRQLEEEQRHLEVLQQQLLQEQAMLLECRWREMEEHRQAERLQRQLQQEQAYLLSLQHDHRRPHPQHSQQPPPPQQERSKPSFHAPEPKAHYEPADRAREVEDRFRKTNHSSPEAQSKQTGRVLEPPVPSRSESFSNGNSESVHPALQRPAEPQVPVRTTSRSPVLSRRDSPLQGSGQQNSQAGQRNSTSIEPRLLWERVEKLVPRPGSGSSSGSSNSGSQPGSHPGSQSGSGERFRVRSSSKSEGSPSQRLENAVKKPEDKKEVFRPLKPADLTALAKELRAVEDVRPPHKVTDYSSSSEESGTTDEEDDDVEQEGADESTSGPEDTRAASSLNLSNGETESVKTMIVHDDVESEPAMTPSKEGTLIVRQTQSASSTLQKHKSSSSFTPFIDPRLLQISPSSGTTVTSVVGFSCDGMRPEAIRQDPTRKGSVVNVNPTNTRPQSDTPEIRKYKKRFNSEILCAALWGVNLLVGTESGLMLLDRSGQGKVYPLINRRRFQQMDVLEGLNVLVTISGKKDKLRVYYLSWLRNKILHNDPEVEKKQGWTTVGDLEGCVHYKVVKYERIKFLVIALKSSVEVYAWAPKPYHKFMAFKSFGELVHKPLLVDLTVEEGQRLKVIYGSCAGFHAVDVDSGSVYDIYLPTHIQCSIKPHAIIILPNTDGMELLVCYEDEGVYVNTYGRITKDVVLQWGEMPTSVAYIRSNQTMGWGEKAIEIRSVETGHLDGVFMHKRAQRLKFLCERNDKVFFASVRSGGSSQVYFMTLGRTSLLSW
UniProt Q8IV50: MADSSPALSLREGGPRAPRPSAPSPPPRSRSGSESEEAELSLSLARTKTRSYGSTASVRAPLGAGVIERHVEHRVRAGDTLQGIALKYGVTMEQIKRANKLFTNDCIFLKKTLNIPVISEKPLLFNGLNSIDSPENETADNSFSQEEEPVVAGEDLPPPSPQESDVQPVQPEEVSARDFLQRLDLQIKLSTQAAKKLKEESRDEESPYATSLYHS
UniProt P33908: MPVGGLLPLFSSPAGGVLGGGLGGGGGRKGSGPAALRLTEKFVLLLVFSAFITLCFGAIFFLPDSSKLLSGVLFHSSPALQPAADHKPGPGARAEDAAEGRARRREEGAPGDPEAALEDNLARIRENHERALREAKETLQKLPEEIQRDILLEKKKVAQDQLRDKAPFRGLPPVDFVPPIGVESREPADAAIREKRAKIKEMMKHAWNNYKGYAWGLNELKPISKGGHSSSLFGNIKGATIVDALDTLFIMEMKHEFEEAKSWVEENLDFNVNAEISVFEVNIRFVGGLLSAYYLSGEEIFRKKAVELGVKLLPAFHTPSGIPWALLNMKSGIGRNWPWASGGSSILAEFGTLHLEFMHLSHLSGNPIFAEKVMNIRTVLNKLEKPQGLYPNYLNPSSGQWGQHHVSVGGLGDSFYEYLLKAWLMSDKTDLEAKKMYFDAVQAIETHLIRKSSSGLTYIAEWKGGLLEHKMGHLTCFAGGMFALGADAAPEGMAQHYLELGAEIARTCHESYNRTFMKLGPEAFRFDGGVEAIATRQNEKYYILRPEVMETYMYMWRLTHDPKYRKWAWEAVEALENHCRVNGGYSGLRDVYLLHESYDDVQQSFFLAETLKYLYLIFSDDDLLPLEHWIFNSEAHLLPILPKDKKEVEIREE
UniProt Q96QZ7: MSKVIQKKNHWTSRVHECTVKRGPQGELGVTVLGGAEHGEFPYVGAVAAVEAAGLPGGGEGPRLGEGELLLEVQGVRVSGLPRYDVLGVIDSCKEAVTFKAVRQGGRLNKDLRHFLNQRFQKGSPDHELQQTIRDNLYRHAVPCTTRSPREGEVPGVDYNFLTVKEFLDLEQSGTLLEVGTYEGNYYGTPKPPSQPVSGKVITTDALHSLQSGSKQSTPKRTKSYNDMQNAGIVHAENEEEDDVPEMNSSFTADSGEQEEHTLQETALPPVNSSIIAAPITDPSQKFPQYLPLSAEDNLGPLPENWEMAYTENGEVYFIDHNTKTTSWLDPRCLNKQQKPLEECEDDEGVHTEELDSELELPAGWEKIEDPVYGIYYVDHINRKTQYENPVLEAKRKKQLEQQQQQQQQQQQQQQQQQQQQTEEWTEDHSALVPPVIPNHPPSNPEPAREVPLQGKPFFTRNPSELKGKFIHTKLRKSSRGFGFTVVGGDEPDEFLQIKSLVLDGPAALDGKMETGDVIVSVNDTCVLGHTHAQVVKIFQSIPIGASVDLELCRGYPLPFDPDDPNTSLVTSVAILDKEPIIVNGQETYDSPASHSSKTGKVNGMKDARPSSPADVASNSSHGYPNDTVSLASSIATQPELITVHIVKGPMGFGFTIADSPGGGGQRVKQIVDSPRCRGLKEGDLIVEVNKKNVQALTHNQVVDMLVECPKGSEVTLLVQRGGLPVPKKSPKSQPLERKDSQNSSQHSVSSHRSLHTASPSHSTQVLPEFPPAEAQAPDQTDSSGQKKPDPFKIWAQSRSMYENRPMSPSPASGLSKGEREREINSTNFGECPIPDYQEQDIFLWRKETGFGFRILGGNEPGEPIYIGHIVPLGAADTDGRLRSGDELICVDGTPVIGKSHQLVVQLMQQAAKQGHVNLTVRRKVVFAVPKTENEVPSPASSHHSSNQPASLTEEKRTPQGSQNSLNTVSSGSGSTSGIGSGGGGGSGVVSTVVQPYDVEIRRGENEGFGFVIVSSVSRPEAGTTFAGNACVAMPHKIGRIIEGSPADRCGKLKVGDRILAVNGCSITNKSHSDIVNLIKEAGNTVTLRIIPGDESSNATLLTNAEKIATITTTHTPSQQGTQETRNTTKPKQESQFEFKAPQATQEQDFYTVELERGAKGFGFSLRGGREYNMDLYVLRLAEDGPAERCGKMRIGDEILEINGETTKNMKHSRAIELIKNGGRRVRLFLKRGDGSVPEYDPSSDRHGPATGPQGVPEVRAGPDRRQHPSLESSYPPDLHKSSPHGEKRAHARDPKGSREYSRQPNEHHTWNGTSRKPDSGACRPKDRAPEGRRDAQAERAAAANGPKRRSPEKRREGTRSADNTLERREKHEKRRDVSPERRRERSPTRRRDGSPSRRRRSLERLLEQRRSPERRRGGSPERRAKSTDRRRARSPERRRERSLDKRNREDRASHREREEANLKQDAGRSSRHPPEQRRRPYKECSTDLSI
UniProt Q9Y383: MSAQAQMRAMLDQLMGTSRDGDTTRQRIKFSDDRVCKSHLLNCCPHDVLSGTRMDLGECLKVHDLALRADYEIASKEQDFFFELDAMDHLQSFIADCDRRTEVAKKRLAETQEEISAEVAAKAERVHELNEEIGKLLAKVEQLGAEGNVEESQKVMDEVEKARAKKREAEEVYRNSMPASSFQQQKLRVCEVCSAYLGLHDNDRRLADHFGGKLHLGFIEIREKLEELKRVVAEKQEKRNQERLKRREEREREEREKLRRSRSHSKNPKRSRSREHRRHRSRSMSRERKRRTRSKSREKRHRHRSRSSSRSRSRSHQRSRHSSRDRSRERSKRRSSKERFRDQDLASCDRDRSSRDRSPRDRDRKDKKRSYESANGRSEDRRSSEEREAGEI
UniProt Q9NQ29: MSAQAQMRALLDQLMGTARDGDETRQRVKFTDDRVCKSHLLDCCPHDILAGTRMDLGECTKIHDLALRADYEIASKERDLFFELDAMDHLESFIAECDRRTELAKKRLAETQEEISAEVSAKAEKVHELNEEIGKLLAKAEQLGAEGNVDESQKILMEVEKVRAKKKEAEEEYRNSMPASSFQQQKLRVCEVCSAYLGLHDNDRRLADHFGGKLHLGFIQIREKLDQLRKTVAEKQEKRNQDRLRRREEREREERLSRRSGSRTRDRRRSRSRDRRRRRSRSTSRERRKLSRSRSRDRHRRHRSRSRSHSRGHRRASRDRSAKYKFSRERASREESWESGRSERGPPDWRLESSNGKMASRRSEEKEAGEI
UniProt Q96A72, whole entry, looked up: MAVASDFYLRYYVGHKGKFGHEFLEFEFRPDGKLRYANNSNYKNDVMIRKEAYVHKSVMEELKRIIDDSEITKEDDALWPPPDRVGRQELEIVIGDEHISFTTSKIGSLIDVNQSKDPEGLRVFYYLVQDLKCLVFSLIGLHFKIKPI
UniProt Q8WZA0: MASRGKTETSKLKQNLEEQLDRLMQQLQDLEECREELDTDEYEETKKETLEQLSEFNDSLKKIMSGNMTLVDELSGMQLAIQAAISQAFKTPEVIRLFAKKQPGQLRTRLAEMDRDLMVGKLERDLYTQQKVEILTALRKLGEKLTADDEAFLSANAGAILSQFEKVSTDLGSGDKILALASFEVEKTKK
UniProt P55145: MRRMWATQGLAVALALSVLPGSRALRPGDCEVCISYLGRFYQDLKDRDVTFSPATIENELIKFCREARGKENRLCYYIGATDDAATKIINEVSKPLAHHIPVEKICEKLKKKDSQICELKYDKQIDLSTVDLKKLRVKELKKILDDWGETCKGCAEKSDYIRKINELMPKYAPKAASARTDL
UniProt Q8WXG6, whole entry, looked up: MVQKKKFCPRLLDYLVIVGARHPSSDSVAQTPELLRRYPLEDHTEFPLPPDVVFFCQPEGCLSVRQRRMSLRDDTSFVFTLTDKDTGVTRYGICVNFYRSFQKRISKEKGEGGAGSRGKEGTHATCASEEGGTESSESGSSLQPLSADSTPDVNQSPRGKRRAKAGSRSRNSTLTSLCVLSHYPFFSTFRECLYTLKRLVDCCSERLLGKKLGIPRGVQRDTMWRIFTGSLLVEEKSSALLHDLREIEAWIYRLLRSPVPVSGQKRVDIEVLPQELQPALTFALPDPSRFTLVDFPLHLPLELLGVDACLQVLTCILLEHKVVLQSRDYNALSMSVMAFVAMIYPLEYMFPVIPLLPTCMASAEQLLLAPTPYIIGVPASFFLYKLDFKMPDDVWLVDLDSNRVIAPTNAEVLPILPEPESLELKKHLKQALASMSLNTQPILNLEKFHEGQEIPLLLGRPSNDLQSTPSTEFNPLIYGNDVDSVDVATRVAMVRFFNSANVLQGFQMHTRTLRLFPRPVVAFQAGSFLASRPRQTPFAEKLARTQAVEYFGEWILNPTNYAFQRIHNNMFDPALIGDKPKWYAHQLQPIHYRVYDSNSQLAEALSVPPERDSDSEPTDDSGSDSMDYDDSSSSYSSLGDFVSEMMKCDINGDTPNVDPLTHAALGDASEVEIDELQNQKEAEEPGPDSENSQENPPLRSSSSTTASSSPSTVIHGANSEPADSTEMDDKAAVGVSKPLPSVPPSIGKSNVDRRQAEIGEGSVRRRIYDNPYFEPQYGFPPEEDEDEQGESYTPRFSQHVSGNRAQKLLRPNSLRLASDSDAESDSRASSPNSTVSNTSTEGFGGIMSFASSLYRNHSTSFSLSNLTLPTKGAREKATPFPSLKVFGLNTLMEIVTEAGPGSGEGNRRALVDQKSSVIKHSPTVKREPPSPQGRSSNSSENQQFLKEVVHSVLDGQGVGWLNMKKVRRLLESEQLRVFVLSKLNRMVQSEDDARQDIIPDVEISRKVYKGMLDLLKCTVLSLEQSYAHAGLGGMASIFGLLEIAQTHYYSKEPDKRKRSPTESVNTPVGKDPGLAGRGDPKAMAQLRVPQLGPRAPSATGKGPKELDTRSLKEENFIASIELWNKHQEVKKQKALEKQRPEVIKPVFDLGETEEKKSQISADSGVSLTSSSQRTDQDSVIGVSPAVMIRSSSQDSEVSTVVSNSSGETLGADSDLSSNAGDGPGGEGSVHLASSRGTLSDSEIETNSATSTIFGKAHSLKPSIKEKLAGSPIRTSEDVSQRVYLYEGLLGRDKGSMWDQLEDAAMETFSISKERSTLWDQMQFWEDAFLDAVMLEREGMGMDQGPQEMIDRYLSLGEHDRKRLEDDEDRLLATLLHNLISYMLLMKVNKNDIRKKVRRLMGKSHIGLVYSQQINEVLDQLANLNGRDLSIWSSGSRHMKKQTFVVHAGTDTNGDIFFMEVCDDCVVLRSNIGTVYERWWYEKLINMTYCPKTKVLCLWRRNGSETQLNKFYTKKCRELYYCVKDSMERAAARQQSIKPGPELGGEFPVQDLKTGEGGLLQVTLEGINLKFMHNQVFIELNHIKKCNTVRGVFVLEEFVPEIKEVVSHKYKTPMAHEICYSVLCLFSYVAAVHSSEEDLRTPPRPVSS

Experiments:
Assay in all cases: log2 fold change, soluble protein after heating vs DMSO (PISA); higher = thermal stabilisation; K562 lysate, 10 uM; active = over 0.2 and 3.5 SD of the protein, either way, in both replicates (recomputed)
[1] = compound: C#Cc1cccc(Nc2ncnc3cc(OCCOC)c(OCCOC)cc23)c1 [erlotinib]
Outline: (§1)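 The values are log-two fold changes in thermal stability compared with solvent controls and come from duplicates. They were obtained by TMTpro 16plex LC-MS/MS, with channel sums equalised, on the supernatant after 21,000xg for 90 min. That supernatant came from crude K562 extract at 1 mg/mL protein treated with 10 μM compound for 30 min, heated for 3 min across 48°C-58°C, pooled and brought to 0.5% NP-40 at 4°C.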

[2] = compound: C/C(=N\NC(=O)C1=CC(=CC=C1)S(=O)(=O)N2CCOCC2)/C3=C(C=CC(=C3)Cl)O
Outline: as §1

[3] = compound: C1=CC(=CC=C1C2=NC3=C(N2)C=C(C=C3)C(=O)N)OC4=CC=C(C=C4)Cl
Outline: as §1

[4] = compound: C1=CC2=C(C=CC(=C2)/C=C\3/C(=O)NC(=NCC4=CC=CS4)S3)N=C1
Outline: as §1

[5] = compound: C1=CC2=NC=CN=C2C=C1/C=C/3\C(=O)NC(=O)S3
Outline: as §1

[6] = compound: C1=CC=C(C=C1)C2=NC(=C(N2)C3=CC=NC=C3)C4=CC(=C(C=C4)Cl)O
Outline: as §1

[7] = compound: C1=CC=C2C(=C1)C3=NNC4=CC=CC(=C43)C2=O
Outline: as §1

[8] = compound: C1CCN(C1)C(=O)NC2=CC=CC(=C2)NC3=NC=C(C(=N3)NCCC4=CN=CN4)Br
Outline: as §1

[9] = compound: C1CN(CCC1(CC2=CC=C(C=C2)Cl)N)C3=NC=NC4=C3C=CN4
Outline: as §1

[10] = compound: C1COCCN1CCN2C3=CC=CC=C3N=C2NC(=O)C4=CC(=CC=C4)[N+](=O)[O-] [IRAK-1-4 Inhibitor I]
Outline: as §1

[11] = compound: C=CC(=O)N1CCC[C@@H](n2nc(-c3ccc(Oc4ccccc4)cc3)c3c(N)ncnc32)C1 [ibrutinib]
Outline: as §1

[12] = compound: CC(=O)c1cnc2ccc(-c3cc(Cl)c(O)c(Cl)c3)nc2c1N[C@H]1CC[C@H](CN(C)C)CC1
Outline: as §1

[13] = compound: CC(C)(C)Cn1c(N)nc2ccc(-c3[nH]c(C(C)(C)C)nc3-c3ccc(F)cc3)nc21 [ralimetinib]
Outline: as §1

[14] = compound: CC(C)(O)CC(=O)NCCn1ccc2ncnc(Nc3ccc(Oc4cccc(C(F)(F)F)c4)c(Cl)c3)c21
Outline: as §1

[15] = compound: CC(C)C1=C2N=C(C=C(N2N=C1)NCC3=CC=CC=C3)NCCCCCCN
Outline: as §1

[16] = compound: CC1=C(C(CC(=O)N1)C2=CC=C(C=C2)C(F)(F)F)C(=O)NC3=C(C=C4C(=C3)C=NN4)F
Outline: as §1

[17] = compound: CC1=C(C2=C(C=C1)C(=O)C3=CC=CC=C3N2CCCN)C
Outline: as §1

[18] = compound: CC1=C(C=C(C=C1)NC(=O)C2=CC(=CC=C2)C(C)(C)C#N)NC3=CC4=C(C=C3)N=CN(C4=O)C
Outline: as §1

[19] = compound: CC1=C(C=C(C=C1)NC(=O)C2=CC(=CC=C2)N(C)C)NC(=O)C3=CC=C(C=C3)O
Outline: as §1

[20] = compound: CC1=CC=C(C=C1)SC2=C3C=C(SC3=CN=C2)C(=O)N
Outline: as §1

Measured: log2 fold change

MAPKAPK3 (UniProt Q16644)
inactive: [1] -0.007 | [2] -0.088 | [3] 0.042 | [4] 0.022 | [5] -0.014 | [6] -0.01 | [7] -0.034 | [8] 0.045 | [9] -0.052 | [10] -0.035 | [11] 0.011 | [12] 0.026 | [13] 0.006 | [14] -0.003 | [15] -0.011 | [16] 0.065 | [17] -0.027 | [18] 0.082 | [19] 0.029 | [20] 0.033

LTF (UniProt P02788)
inactive: [1] 0.143 | [2] 1.79 | [3] -0.146 | [4] 0.019 | [5] 0.15 | [6] -0.169 | [7] 0.041 | [8] 0.028 | [9] -0.037 | [10] -0.322 | [11] -0.205 | [12] 0.038 | [13] 0.052 | [14] 0.613 | [15] 1.36 | [16] 1.29 | [17] 0.131 | [18] 0.248 | [19] 0.034 | [20] 0.003

MAP4K4 isoform 3 (UniProt O95819)
inactive: [1] -0.003 | [2] -0.025 | [3] 0.099 | [4] 0.038 | [5] -0.027 | [6] -0.093 | [7] -0.077 | [8] 0.008 | [9] -0.011 | [10] 0.059 | [11] -0.052 | [12] -0.021 | [13] -0.065 | [14] -0.002 | [15] 0.046 | [16] 0.067 | [17] -0.042 | [18] -0.022 | [19] 0.062 | [20] -0.056

LYSMD2 (UniProt Q8IV50)
inactive: [1] -0.013 | [2] -0.143 | [3] -0.031 | [4] 0.005 | [5] -0.039 | [6] 0.007 | [7] 0.029 | [8] 0.006 | [9] -0.003 | [10] -0.014 | [11] -0.032 | [12] 0.016 | [13] -0.002 | [14] 0.011 | [15] -0.073 | [16] 0.022 | [17] -0.063 | [18] -0.031 | [19] -0.027 | [20] -0.016

MAN1A1 (UniProt P33908)
inactive: [1] 0.027 | [2] 0.001 | [3] 0.021 | [4] -0.034 | [5] 0.024 | [6] -0.039 | [7] 0.035 | [8] 0.066 | [9] -0.019 | [10] -0.007 | [11] -0.014 | [12] -0.008 | [13] 0.038 | [14] -0.038 | [15] -0.097 | [16] 0.044 | [17] -0.005 | [18] -0.024 | [19] -0.017 | [20] -0.001

MAGI1 isoform 6 (UniProt Q96QZ7)
inactive: [1] 0.008 | [2] 0.01 | [3] 0.003 | [4] -0.005 | [5] -0.036 | [6] -0.012 | [7] -0.061 | [8] 0.028 | [9] 0.036 | [10] -0.021 | [11] 0.025 | [12] -0.01 | [13] -0.005 | [14] -0.028 | [15] 0.016 | [16] -0.017 | [17] -0.052 | [18] 0.023 | [19] 0.009 | [20] 0.012

LUC7L2 (UniProt Q9Y383)
inactive: [1] -0.003 | [2] 0.019 | [3] -0.036 | [4] 0.004 | [5] -0.035 | [6] -0.007 | [7] 0.033 | [8] 0.022 | [9] -0.024 | [10] -0.029 | [11] -0.013 | [12] 0.013 | [13] 0.014 | [14] 0.004 | [15] 0.018 | [16] -0.029 | [17] 0.009 | [18] 0.01 | [19] -0.013 | [20] 0.023

MAP2K7 isoform 4 (UniProt O14733)
active: [7] 0.586 | [11] 1.44
inactive: [1] -0.042 | [2] -0.034 | [3] 0.037 | [4] 0.091 | [5] 0.241 | [6] 0.044 | [8] -0.106 | [9] 0.078 | [10] -0.123 | [12] 0.288 | [13] 0.028 | [14] 0.028 | [15] -0.071 | [16] -0.029 | [17] 0.011 | [18] -0.004 | [19] -0.002 | [20] 0.018

LUC7L (UniProt Q9NQ29)
inactive: [1] -0.024 | [2] 0.021 | [3] -0.097 | [4] 0.015 | [5] -0.067 | [6] -0.023 | [7] 0.01 | [8] -0.02 | [9] -0.004 | [10] -0.026 | [11] 0.007 | [12] 0.003 | [13] 0.008 | [14] 0.027 | [15] 0.056 | [16] 0.002 | [17] 0.007 | [18] -0.04 | [19] -0.01 | [20] 0.02

MAGOHB (UniProt Q96A72)
inactive: [1] 0.001 | [2] 0.012 | [3] 0.011 | [4] -0.014 | [5] -0.014 | [6] -0.018 | [7] -0.002 | [8] -0.002 | [9] 0.03 | [10] 0 | [11] 0.027 | [12] 0 | [13] 0.011 | [14] 0.001 | [15] 0.001 | [16] -0.004 | [17] 0.008 | [18] -0.005 | [19] 0.006 | [20] 0.005

LZIC isoform 2 (UniProt Q8WZA0)
inactive: [1] -0.017 | [2] 0.062 | [3] -0.002 | [4] -0.006 | [5] -0.016 | [6] 0.019 | [7] -0.014 | [8] 0.024 | [9] -0.011 | [10] -0.019 | [11] 0.005 | [12] 0.016 | [13] -0.025 | [14] 0.049 | [15] 0.013 | [16] -0.009 | [17] -0.016 | [18] 0.01 | [19] -0.03 | [20] -0.025

MAGEC2 (UniProt Q9UBF1)
inactive: [1] 0.011 | [2] -0.002 | [3] 0.04 | [4] 0.001 | [5] 0.026 | [6] -0.019 | [7] 0.049 | [8] 0.063 | [9] -0.015 | [10] 0.022 | [11] -0.021 | [12] 0.005 | [13] 0.045 | [14] -0.042 | [15] 0.027 | [16] -0.005 | [17] -0.012 | [18] 0.083 | [19] -0.001 | [20] 0.033

MANF (UniProt P55145)
inactive: [1] -0.004 | [2] 0.05 | [3] -0.013 | [4] 0.029 | [5] 0 | [6] -0.004 | [7] 0.045 | [8] 0.014 | [9] -0.032 | [10] 0.029 | [11] -0.002 | [12] 0.003 | [13] -0.036 | [14] -0.01 | [15] 0.012 | [16] -0.008 | [17] 0.035 | [18] -0.019 | [19] -0.033 | [20] 0.006

MADD isoform 4 (UniProt Q8WXG6)
inactive: [1] 0.045 | [2] -0.049 | [3] 0.012 | [4] 0 | [5] -0.046 | [6] 0.005 | [7] -0.052 | [8] -0.015 | [9] -0.01 | [10] 0.002 | [11] 0.034 | [12] -0.018 | [13] -0.023 | [14] -0.039 | [15] -0.001 | [16] 0.032 | [17] -0.007 | [18] -0.009 | [19] 0.021 | [20] -0.011

MAPK6 (UniProt Q16659)
inactive: [1] -0.004 | [2] 0.036 | [3] 0.019 | [4] 0.006 | [5] 0.015 | [6] 0.001 | [7] 0.069 | [8] 0.068 | [9] 0.015 | [10] -0.027 | [11] 0.07 | [12] 0.025 | [13] 0.004 | [14] -0.05 | [15] 0.012 | [16] 0 | [17] 0 | [18] -0.006 | [19] 0.029 | [20] 0.021

MAPK14 isoform 2 (UniProt Q16539)
active: [13] 0.97 | [18] 0.973
inactive: [1] -0.004 | [2] 0.011 | [3] -0.049 | [4] 0.016 | [5] 0.017 | [6] 0.633 | [7] -0.045 | [8] -0.02 | [9] 0.059 | [10] -0.015 | [11] 0.03 | [12] 0.249 | [14] -0.047 | [15] -0.003 | [16] 0.02 | [17] -0.027 | [19] 0.419 | [20] 0.011
